Experimental findings from the supplement of paper PMC10849652 are described below.

Protein sequences, listed by entry. Tags and fused reporters are not part of them. Lines headed by an entry give the natural chain unless they say otherwise; changes in a name come on top.
UniProt P98153: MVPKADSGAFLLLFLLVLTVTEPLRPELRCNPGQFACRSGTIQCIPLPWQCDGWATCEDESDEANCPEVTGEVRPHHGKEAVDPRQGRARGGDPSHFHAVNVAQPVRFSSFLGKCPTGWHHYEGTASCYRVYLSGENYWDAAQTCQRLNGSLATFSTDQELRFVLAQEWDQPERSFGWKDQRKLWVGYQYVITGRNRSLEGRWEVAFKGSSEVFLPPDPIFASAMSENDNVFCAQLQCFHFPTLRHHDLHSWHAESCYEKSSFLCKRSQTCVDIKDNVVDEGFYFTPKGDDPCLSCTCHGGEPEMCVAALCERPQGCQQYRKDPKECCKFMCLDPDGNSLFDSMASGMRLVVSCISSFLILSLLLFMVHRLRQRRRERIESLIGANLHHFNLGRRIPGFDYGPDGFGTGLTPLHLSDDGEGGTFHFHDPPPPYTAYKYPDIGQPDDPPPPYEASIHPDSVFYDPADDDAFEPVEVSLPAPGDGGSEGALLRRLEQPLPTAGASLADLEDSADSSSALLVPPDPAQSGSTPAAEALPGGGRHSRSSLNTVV
UniProt Q9H3H5: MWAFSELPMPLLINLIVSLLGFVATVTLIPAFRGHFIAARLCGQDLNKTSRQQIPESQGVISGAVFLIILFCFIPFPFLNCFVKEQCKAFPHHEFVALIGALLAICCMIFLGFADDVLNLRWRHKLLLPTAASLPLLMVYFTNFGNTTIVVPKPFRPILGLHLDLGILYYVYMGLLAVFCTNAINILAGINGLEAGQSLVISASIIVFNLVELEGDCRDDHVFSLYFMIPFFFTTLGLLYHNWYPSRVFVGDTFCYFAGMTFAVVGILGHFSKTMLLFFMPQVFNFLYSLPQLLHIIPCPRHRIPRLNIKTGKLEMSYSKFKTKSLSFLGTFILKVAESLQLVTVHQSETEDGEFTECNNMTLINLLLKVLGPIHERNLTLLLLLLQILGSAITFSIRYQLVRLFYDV
UniProt Q5SXM8: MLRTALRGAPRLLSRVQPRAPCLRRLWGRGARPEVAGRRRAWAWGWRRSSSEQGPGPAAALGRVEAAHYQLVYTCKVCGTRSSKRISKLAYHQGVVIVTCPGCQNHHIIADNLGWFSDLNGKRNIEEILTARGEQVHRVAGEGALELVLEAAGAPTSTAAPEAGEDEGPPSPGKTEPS
UniProt P50570: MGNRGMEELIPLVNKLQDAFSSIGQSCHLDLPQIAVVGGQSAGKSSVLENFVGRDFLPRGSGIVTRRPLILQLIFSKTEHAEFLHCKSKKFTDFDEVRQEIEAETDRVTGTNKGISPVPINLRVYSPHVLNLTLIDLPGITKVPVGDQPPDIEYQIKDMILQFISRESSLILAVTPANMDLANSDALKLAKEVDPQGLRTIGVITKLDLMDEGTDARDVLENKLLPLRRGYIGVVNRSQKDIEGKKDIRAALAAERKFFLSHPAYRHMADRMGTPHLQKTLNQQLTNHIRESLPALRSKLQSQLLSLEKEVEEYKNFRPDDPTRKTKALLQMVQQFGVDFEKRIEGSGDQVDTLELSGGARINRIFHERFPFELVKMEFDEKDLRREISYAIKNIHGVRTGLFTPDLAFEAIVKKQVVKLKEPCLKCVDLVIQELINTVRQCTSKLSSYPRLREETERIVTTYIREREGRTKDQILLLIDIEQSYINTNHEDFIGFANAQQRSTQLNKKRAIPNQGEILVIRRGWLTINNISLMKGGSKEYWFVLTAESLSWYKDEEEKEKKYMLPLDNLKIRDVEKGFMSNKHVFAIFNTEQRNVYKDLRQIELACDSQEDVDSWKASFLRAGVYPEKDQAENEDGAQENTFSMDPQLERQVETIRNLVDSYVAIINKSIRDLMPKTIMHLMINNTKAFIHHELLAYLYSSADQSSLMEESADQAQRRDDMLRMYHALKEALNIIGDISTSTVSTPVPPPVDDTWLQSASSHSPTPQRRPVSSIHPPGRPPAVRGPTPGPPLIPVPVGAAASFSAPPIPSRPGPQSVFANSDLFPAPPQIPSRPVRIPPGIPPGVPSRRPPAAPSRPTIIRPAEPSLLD
UniProt Q96HP0: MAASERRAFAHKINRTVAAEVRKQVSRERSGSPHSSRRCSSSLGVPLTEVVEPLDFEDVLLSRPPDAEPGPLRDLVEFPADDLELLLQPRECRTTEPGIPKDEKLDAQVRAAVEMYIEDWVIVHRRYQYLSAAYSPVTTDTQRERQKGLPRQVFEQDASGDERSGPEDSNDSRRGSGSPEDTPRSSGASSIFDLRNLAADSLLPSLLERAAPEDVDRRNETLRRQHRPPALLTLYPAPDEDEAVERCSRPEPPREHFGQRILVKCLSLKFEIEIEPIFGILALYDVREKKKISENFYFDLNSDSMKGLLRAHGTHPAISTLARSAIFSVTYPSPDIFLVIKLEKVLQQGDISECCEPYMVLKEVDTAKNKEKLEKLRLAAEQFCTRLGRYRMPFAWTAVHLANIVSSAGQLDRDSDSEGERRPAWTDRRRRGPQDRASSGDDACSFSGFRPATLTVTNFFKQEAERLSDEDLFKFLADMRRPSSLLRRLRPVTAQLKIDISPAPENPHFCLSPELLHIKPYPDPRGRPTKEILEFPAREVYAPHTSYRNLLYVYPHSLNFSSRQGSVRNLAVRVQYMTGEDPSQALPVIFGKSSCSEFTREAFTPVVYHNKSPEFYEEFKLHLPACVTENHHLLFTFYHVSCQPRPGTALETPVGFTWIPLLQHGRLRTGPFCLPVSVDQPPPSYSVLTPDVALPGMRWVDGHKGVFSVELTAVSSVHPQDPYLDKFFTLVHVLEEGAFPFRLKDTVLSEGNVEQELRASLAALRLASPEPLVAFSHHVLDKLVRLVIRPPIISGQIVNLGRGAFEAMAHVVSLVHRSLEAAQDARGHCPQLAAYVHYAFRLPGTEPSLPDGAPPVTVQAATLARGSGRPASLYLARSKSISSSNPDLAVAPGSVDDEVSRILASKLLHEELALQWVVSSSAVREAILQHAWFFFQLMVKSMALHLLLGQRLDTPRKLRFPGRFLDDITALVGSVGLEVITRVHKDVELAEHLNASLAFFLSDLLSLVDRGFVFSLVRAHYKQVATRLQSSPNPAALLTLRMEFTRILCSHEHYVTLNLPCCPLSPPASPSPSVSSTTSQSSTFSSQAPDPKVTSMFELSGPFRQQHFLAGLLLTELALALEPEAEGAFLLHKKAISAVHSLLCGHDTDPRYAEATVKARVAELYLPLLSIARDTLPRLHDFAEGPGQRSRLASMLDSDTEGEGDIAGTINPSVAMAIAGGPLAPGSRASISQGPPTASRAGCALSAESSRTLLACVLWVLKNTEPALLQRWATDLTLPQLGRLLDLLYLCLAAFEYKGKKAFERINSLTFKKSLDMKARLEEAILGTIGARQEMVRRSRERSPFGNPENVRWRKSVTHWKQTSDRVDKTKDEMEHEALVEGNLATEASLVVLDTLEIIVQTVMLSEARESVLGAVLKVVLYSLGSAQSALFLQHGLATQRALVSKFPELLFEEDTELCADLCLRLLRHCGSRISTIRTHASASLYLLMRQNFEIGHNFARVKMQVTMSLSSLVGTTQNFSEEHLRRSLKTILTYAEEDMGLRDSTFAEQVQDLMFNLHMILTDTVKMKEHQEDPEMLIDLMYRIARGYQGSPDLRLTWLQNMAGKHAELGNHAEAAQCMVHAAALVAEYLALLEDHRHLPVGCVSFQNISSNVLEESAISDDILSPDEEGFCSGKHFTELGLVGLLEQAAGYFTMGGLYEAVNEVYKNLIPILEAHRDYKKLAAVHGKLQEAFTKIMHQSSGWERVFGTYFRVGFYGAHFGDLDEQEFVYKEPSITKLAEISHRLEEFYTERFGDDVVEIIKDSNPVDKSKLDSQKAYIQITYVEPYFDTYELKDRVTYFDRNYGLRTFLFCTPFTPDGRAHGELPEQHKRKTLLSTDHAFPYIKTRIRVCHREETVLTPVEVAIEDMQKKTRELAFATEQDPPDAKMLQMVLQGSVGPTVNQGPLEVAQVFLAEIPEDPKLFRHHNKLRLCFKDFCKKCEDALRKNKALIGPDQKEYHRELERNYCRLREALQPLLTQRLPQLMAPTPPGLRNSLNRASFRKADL
UniProt Q9BY27: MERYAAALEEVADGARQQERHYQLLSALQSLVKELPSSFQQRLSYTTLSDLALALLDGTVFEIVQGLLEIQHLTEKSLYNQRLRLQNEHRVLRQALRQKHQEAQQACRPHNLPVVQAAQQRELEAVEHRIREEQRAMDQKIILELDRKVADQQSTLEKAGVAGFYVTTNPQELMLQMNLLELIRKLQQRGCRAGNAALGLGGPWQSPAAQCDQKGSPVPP
UniProt P52429: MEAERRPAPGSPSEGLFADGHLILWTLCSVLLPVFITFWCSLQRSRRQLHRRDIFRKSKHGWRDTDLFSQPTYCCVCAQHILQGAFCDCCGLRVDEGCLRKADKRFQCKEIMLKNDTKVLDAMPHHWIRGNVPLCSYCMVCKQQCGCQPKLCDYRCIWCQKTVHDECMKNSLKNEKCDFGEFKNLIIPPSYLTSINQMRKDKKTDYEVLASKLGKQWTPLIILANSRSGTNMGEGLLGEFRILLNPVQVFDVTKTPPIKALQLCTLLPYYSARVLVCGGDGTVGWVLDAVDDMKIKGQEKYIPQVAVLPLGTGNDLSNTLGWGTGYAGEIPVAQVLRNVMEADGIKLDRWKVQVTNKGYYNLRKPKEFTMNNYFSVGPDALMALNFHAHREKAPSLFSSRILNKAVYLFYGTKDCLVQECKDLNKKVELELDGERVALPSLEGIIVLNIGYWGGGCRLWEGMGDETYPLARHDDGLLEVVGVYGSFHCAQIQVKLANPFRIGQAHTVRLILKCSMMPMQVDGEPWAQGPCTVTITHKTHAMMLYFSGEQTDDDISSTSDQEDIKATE
UniProt Q7L7V1: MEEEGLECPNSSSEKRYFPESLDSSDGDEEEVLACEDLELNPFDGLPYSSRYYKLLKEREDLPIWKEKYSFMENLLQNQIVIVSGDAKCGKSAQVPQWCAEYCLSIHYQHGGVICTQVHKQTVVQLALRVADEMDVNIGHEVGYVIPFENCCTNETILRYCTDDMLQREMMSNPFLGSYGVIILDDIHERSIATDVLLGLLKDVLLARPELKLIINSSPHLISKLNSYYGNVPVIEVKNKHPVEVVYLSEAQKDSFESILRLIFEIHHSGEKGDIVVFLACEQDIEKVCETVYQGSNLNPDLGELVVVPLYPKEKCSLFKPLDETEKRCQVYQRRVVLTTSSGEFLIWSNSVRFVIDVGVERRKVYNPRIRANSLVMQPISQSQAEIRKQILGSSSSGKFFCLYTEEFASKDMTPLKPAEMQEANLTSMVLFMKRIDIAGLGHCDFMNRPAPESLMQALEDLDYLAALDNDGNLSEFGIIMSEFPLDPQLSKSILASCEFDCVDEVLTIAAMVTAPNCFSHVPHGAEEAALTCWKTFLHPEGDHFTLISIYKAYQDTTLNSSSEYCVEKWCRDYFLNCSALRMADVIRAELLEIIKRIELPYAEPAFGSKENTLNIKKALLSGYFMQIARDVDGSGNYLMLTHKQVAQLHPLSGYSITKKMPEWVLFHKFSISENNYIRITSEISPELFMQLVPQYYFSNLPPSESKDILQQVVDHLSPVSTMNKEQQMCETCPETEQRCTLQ
UniProt Q96HY7: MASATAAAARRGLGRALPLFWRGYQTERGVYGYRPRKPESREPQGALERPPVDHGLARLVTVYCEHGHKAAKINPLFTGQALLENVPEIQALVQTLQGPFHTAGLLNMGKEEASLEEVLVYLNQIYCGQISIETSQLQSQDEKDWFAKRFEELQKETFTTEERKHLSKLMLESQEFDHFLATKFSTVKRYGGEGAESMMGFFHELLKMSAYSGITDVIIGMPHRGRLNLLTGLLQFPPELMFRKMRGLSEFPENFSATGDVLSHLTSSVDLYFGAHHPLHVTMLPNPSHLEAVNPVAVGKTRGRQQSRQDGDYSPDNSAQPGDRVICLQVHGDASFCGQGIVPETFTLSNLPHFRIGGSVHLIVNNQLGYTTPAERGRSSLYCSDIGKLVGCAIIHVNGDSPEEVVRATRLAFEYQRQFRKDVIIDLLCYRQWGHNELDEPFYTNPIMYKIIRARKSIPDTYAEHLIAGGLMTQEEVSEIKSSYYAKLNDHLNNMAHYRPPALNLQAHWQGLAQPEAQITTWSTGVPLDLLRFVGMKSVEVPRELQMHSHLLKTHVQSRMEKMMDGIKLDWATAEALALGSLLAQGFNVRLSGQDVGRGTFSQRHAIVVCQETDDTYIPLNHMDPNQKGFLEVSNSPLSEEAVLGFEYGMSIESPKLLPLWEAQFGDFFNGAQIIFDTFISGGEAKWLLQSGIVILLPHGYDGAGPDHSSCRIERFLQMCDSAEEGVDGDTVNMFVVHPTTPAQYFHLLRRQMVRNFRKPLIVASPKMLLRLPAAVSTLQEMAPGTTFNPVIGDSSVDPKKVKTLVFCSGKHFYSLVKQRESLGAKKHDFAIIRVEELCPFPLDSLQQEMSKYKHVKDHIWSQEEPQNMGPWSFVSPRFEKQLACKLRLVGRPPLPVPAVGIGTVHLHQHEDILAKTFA

This is one part of the list.

What all share (assay): log2 fold change, soluble protein after heating vs DMSO (PISA); higher = thermal stabilisation; K562 lysate, 10 uM; active = over 0.2 and 3.5 SD of the protein, either way, in both replicates (recomputed)
Compound in test [1]: C1=CC=C(C=C1)[C@H](COC2=CC3=C(C=C2)NC(=O)N3)NC(=O)C4=CC=CN(C4=O)CC5=CC(=C(C=C5)F)F
In short, it runs like this:
(§1)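 Pellets of K562 cells were dounce-homogenised in PBS pH 7.4 with 1 mM MgCl2, and the crude extract was held at 1 mg/mL protein for a 30 min treatment with 10 μM compound. Aliquots were heated for 3 min over 48°C-58°C and pooled before NP-40 was added to 0.5% at 4°C. The supernatant from 21,000xg for 90 min was quantified by TMTpro 16plex LC-MS/MS with channel sums equalised. Values are reported from duplicates as log-two fold change in thermal stability relative to solvent controls.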

Compound in test [2]: CC1=C(SC2=C1C(=N[C@H](C3=NN=C(N32)C)CC(=O)N)C4=CC=C(C=C4)Cl)C
An outline of the steps: as §1

Compound in test [3]: CC1=C2C(=CC=C1)N=C(N(C2=O)C3=CC=CC=C3C)CN4C=NC5=C(N=CN=C54)N
In short, it runs like this: as §1

Compound in test [4]: Cc1sc2c(c1C)C(c1ccc(Cl)cc1)=N[C@@H](CC(=O)OC(C)(C)C)c1nnc(C)n1-2
In short, it runs like this: as §1

Compound in test [5]: c1ccc([C@@H]2C[C@H]2NC2CCNCC2)cc1
In short, it runs like this: as §1

As for DNAJB14 (UniProt Q8TBM8), the log2 fold change was inactive: 0.059 in test [1]; inactive: -0.043 in test [2]; inactive: 0.086 in test [3]; inactive: -0.037 in test [4]; inactive: 0.034 in test [5].

Regarding DHRSX (UniProt Q8N5I4), the log2 fold change in test [3] was inactive: 0.006; in test [4], inactive: -0.064.

Take DNA2 (UniProt P51530): the log2 fold change in test [3] is inactive: 0.047; in test [4], inactive: 0.072; in test [5] it was inactive: 0.026.

In the case of DGCR2 (UniProt P98153), the log2 fold change was inactive: -0.056 in test [3], inactive: 0.042 in test [4] and inactive: 0.015 in test [5].

As for DNAJB9 (UniProt Q9UBS3), the log2 fold change in test [4] is inactive: 0.06.

Take DOK2 (UniProt O60496): the log2 fold change in test [5] is inactive: -0.146.

As for DPAGT1 (UniProt Q9H3H5), the log2 fold change in test [1] was inactive: -0.073; in test [2], inactive: 0.014; in test [5], inactive: -0.039.

DNAJB1 (UniProt M0R128): the log2 fold change in test [1] is inactive: -0.25; in test [2] it was inactive: 0.269; in test [5], inactive: -0.326.

DNPEP (UniProt B9ZVU2): in test [4], the log2 fold change is inactive: -0.063.

For the target DHPS (UniProt M0R1T2), the log2 fold change in test [5] is inactive: -0.274.

For DOCK2 (UniProt Q92608), the log2 fold change was inactive: 0.004 in test [3], inactive: -0.055 in test [4] and inactive: -0.045 in test [5].

Consider DNAJC14 (UniProt Q6Y2X3), for which the log2 fold change in test [4] was inactive: 0.252.

With DNLZ (UniProt Q5SXM8), the log2 fold change in test [5] was inactive: -0.135.

Consider DNM2 isoform 4 (UniProt P50570), for which the log2 fold change in test [4] is inactive: 0.025; in test [5] it was inactive: -0.043.

Consider DOCK6 (UniProt Q96HP0), for which the log2 fold change in test [4] was inactive: 0.117.

Take DNMT3A (UniProt Q9Y6K1): the log2 fold change in test [5] is inactive: -0.1.

On to DNAJC24 (UniProt Q6P3W2), for which the values for the log2 fold change in test [3], in test [4] and in test [5] were inactive: 0.007, inactive: 0.024 and inactive: 0.055, respectively.

As for DOCK11, A0A0J9YW64, the log2 fold change was inactive: 0.032 in test [1], inactive: 0.011 in test [2] and inactive: 0.077 in test [5].

On to DGCR6L (UniProt Q9BY27), for which the log2 fold change in test [5] was inactive: -0.017.

For DOLK (UniProt Q9UPQ8), in test [5], the log2 fold change was inactive: -0.038.

Consider DNTTIP1 (UniProt Q9H147), for which the log2 fold change in test [3] was inactive: 0.004; in test [4], inactive: 0.012; in test [5], inactive: 0.158.

As to DNASE1L1 (UniProt P49184), the log2 fold change in test [5] is inactive: -0.193.

For DGKE (UniProt P52429), the log2 fold change in test [3] was inactive: 0.709; in test [4], inactive: 0.043; in test [5] it was inactive: -0.17.

On to DMAC1 (UniProt Q96GE9), for which the log2 fold change was inactive: -0.003 in test [3] and inactive: -0.024 in test [5].

As to DHX32 (UniProt Q7L7V1), the log2 fold change in test [3] is inactive: -0.086; in test [5], inactive: -0.009.

Take DNAJB14 (UniProt H7C494): the log2 fold change in test [5] is inactive: -0.087.

DNMT3B (UniProt Q9UBC3): in test [3], the log2 fold change was inactive: -0.066.

For DHTKD1 (UniProt Q96HY7), the figures for the log2 fold change in test [1], in test [2] and in test [5] were inactive: 0.032, inactive: -0.2 and inactive: 0.048, respectively.

For the target DHX33 (UniProt Q9H6R0), the log2 fold change in test [4] was inactive: 0.213; in test [5] it was inactive: 0.229.

For the target DOT1L isoform 1 (UniProt Q8TEK3), the log2 fold change is inactive: 0 in test [3] and inactive: 0.074 in test [4].

Regarding DMBT1 isoform 6 (UniProt Q9UGM3), the log2 fold change in test [3] was inactive: 0.785; in test [5], inactive: 0.087.

In the case of DGKQ (UniProt P52824), the figures for the log2 fold change in test [3], in test [4] and in test [5] were inactive: 0, inactive: -0.143 and inactive: -0.044, respectively.

For DMTN isoform 2 (UniProt Q08495), the values for the log2 fold change in test [3], in test [4] and in test [5] were inactive: 0.039, inactive: 0.019 and inactive: 0.087, respectively.

As for DOP1B (UniProt Q9Y3R5), the log2 fold change in test [3] is inactive: 0.071; in test [5], inactive: -0.164.
